System: collagen
Test: Cryo-SEM measurement of fibril diameters
Details: cryo-SEM images at 20,000×
Description: Using a modification of EXAMPLE 18 fibril diameters were measured by 8cryo-SEM. Fibril diameters from cryo-SEM images taken at 20,000× were measured using ImageJ software (NIH). At least 45 fibrils were measured for each treatment. Results are presented as Avg.±S.E. Statistical analysis was performed using DesignExpert software (StatEase) with α=0.05.

Sequence | fibril diameter
RRANAALKAGELYKSILYGC | decrease in fibril diameter
SYIRIADTNITGC [Dc13] | does not affect fibril diameter
